In patent US20040077591A1, “Histone deacetylase inhibitors for the treatment of multiple sclerosis, amyotrophic lateral sclerosis and Alzheimer's Disease” (The Brigham and Women's Hospital, Inc., priority 2002, published 2004):
At least one structure is not confirmed: it was looked up by name or label, or the drawing left a doubt.

Tested on: experimental autoimmune encephalomyelitis (EAE) in mice
Assay: MOG-induced EAE in mice, clinical disability scoring
Type: in vivo, C57BL/6 female mice
Conditions: TSA 7.5 mg/kg/dose/d i.p. from day 4; two separate exp. pooled
From the text: FIG. 1—Efficacy of HDAC inhibitor treatment in reducing the clinical manifestations of experimental autoimmune encephalomyelitis (EAE) in mice. Mean clinical scores reflect reduced clinical disability by TSA in the neurodegenerative phase of EAE (● TSA-treated; ◯ vehicle-treated) (*P<0.05 by Fisher's protected least significant difference (PLSD) test). The remission phase lasted from days 19 to 34 following disease induction in a first experiment, days 21 to 32 in a second experiment. Animals were scored for signs of disability using the following widely used scale: 1, limp tail or isolated weakness of gait without limp tail; 2, partial hind leg paralysis; 3, total hind leg or partial hind and front leg paralysis and/or urinary incontinence; 4, total hind leg and partial front leg paralysis; 5, moribund or dead animal (with minor modifications from Issazadeh et al. (1998)). The definitions used were: (1) mean peak remission: mean of maximal score reached during remission, and (2) mean % days of severity: mean % of days with scores ≧2.
Experimental autoimmune encephalomyelitis (EAE) is the most widely accepted animal model for multiple sclerosis. […] Medications that currently modify the disease course in humans also modify the disease course in the animal model. […]

SMILES: CC(/C=C/C(=O)NO)=C\[C@@H](C)C(=O)c1ccc(N(C)C)cc1 [TSA, Trichostatin A]
- Incidence (Clinical EAE): 24/24 (100%)
